# Test results from PubChem BioAssay AID2685 (National Center for Advancing Translational Sciences (NCATS), 2010).
# The other results are listed elsewhere or left out. The main result of the screen is listed elsewhere. These columns were measured beside it and carry no call. Most of these compounds were active or inconclusive in the main read-out, so they are no random draw. The note in brackets gives the kind of curve behind each potency; many fits are weak.
# Assay: qHTS Assay for Lipid Storage Modulators in Drosophila S3 Cells;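 on cell number change: cells counted by Cell Tracker Red CMTPX staining in the red channel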
# Details: BODIPY lipid droplet fluorescence, 18-24 h; for cell number change: measured here: cell count max response, cells fed with added oleic acid
# Method in brief: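 Drosophila S3 cells got compounds at several concentrations plus oleic acid (400 uM solution). Laser-scanning cytometry with 488 nm excitation read lipid droplets at 500-530 nm and cells at 575-640 nm. Percent activity was relative to 20 uM Triacsin C.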
# [1] = measured here: cell number channel AC50, cells fed with added oleic acid
# [2] = measured here: lipid fluorescence (Fed channel) AC50, cells fed with added oleic acid
smiles,measurement,setting,value
COc1ccc(C(=O)NCC(c2ccco2)N2CCc3ccccc3C2)cc1 (centres undefined),cell number change,,89.9%
same,AC50,[1],"18.4 µM [rising, partial curve]"
Cc1ccc(Oc2ccc(OCC(=O)NC3CCS(=O)(=O)C3)cc2)cc1 (centres undefined),cell number change,,-26.7%
same,AC50,[2],"29.1 µM [falling, single point]"
O=C(Nc1ccccc1C(=O)Nc1ccc(Br)cn1)c1ccccc1Cl,cell number change,,-15.9%
same,AC50,[2],"14.6 µM [falling, single point]"
Cc1ccc(NC(=O)c2ccc(COc3ccccc3)o2)nc1,cell number change,,24.6%
same,AC50,[1],"0.731 µM [rising, full curve, poor fit]"
Cc1ccc2[nH]c(=O)c(CN(CCO)Cc3nnnn3CCc3ccccc3)cc2c1,cell number change,,37.5%
same,AC50,[1],"18.4 µM [rising, single point]"
same,AC50,[2],"29.1 µM [rising, single point]"
COc1cc(-n2c(=O)c3ccccc3n(CC(=O)c3ccccc3)c2=O)cc(OC)c1OC,cell number change,,-24.7%
same,AC50,[1],"3.66 µM [falling, full curve, poor fit]"
same,AC50,[2],"2.91 µM [falling, full curve, poor fit]"
COc1ccc(-c2oc3ccc(-c4ccc(OC)nc4)cc3c2C#CC2(O)CCCCC2)cc1,cell number change,,34.6%
same,AC50,[1],"13 µM [rising, single point]"
same,AC50,[2],"29.1 µM [rising, single point]"
O=C(Nc1c(Cl)ccc2nsnc12)c1ccco1,cell number change,,27.6%
same,AC50,[1],"7.31 µM [falling, partial curve, poor fit]"
CCCC1C2C(=O)N(c3ccccc3)C(=O)C2ON1c1ccccc1 (centres undefined),cell number change,,-77.4%
same,AC50,[1],"14.6 µM [falling, partial curve]"
same,AC50,[2],"0.206 µM [falling, full curve, poor fit]"
Cc1c(Br)cccc1NC(=O)c1sccc1-n1cccc1,cell number change,,44.4%
same,AC50,[1],"20.6 µM [rising, single point]"
CN(C)c1nc(-c2cn(CCC#N)c3ccccc23)cs1,cell number change,,4.5%
same,AC50,[2],"0.58 µM [rising, single point]"
COc1ccc(/C=C/C(=O)OCC(=O)Nc2c(C)cccc2C)cc1,cell number change,,65.8%
same,AC50,[2],"23.1 µM [rising, single point]"
CCOC(=O)C1C(c2cccc(Cl)c2Cl)NC(=O)NC1(O)C(F)(F)F (centres undefined),AC50,[2],"0.00461 µM [falling, full curve, poor fit]"
Nc1nc(-c2ccc(Br)cc2)cs1,cell number change,,-0.431%
same,AC50,[2],"4.61 µM [rising, single point]"
Cc1cc(NC(=O)CSCC(=O)Nc2cc(C(F)(F)F)ccc2N2CCOCC2)no1,cell number change,,51.4%
same,AC50,[1],"23.1 µM [rising, partial curve]"
same,AC50,[2],"20.6 µM [rising, partial curve]"
COc1ccccc1NC(=O)Cc1nnc(SCC(=O)c2ccccc2)n1C,cell number change,,7.56%
same,AC50,[2],"9.2 µM [rising, partial curve]"
CC(C)CSc1nnc2c(n1)[nH]c1ccccc12,cell number change,,13%
same,AC50,[2],"5.8 µM [rising, single point]"
CC(=O)c1cccc(NC(=O)COc2ccc3oc(=O)cc(C)c3c2)c1,cell number change,,-9.3%
same,AC50,[2],"10.3 µM [falling, partial curve, poor fit]"
COc1ccc(Cl)cc1NC(=O)C(OC)c1ccccc1 (centres undefined),cell number change,,-52.9%
same,AC50,[1],"20.6 µM [falling, single point]"
C=C(C)COc1ccc(-c2n[nH]c(C)c2-c2ccccc2OC)c(O)c1,cell number change,,-78.8%
same,AC50,[1],"23.1 µM [falling, partial curve]"
same,AC50,[2],"29.1 µM [falling, single point]"
CCN1CCCC1CNCc1cccc(OC)c1OCc1ccccc1 (centres undefined),cell number change,,-16.7%
same,AC50,[1],"1.64 µM [rising, partial curve]"
same,AC50,[2],"16.4 µM [rising, single point]"
O=C(NNc1nc(N2CCOCC2)nc(N2CCOCC2)n1)Nc1ccc(Cl)cc1,AC50,[1],"2.31 µM [rising, single point]"
COc1ccc(OC)c(C(=O)c2ccc(Cl)cc2)c1,cell number change,,3.57%
same,AC50,[2],"0.092 µM [rising, single point]"
CCCNC(=O)Nc1cc(S(=O)(=O)CC)ccc1O,cell number change,,40.5%
same,AC50,[1],"18.4 µM [rising, single point]"
CCOc1ccc(S(=O)(=O)N2CCC(C(=O)NCc3cccnc3)CC2)cc1C,cell number change,,16.4%
same,AC50,[2],"29.1 µM [rising, single point]"
CC1(C)CC(NC(=O)C2CCC(=O)N(Cc3ccccc3F)C2)CC(C)(C)C1 (centres undefined),cell number change,,-18.2%
same,AC50,[2],"0.58 µM [rising, single point]"
O=C(Nc1ccccc1F)C1CCN(C(=O)NCc2ccccc2)CC1,cell number change,,31.2%
same,AC50,[1],"20.6 µM [rising, partial curve]"
Cc1cc(C)cc(NC(=O)CSc2nc3c(c(=O)n2C)SC(C)C3)c1 (centres undefined),AC50,[1],"1.84 µM [rising, partial curve]"
same,AC50,[2],"2.06 µM [rising, partial curve]"
S=C1NC2(CCCC2)Nc2ccccc21,cell number change,,-23.9%
Cc1cccc(C2Nc3ccccc3C(=O)N2NC(=O)c2ccc([N+](=O)[O-])cc2)n1 (centres undefined),cell number change,,32.7%
same,AC50,[1],"32.6 µM [rising, single point]"
same,AC50,[2],"9.2 µM [rising, partial curve, poor fit]"
Cc1nc(N/N=C/c2ccc(O)cc2O)cc(N2CCOCC2)n1,cell number change,,-10.6%
O=C(NCCCNC(=O)c1ccco1)c1ccc(Cl)c(Cl)c1,cell number change,,11.2%
Cc1csc(NC(=O)Cc2c[nH]c3ccccc23)n1,cell number change,,31.6%
same,AC50,[1],"29.1 µM [rising, single point]"
same,AC50,[2],"23.1 µM [rising, partial curve]"
Cc1ccc(S(=O)(=O)N(CC(=O)N/N=C/c2cccc(C)c2)c2cccc3cccnc23)cc1,cell number change,,-16.8%
same,AC50,[2],"0.58 µM [rising, single point]"
CCOC(=O)CSc1n[nH]c(NC(=O)c2cccc(C(F)(F)F)c2)n1,cell number change,,17.8%
same,AC50,[1],"0.411 µM [rising, full curve, poor fit]"
Clc1ccccc1-c1nc(/C=N/N2CCOCC2)c2ccccn12,cell number change,,74.7%
same,AC50,[1],"16.4 µM [rising, single point]"
same,AC50,[2],"25.9 µM [rising, partial curve]"
CCNC(=O)c1ccccc1SCC(=O)Nc1ccc(F)cc1,cell number change,,40.4%
same,AC50,[1],"10.3 µM [rising, single point]"
CCC(=O)N(c1nnc(SCC(=O)Nc2ccccc2Cl)s1)C1CC1,cell number change,,-18.8%
same,AC50,[1],"0.461 µM [falling, full curve, poor fit]"
same,AC50,[2],"0.116 µM [falling, full curve]"
Cc1sc(NC(=O)CN(C)C2CCCCC2)nc1-c1ccc2c(c1)CCN2S(=O)(=O)c1ccccc1,cell number change,,-2.1%
COc1ccc(S(=O)(=O)NCC(c2cccnc2)N2CCN(Cc3ccccc3)CC2)cc1 (centres undefined),cell number change,,-8.67%
same,AC50,[2],"0.092 µM [falling, full curve]"
NCCCNC(=O)c1ccc(/C=N/O)nc1,cell number change,,-1.19%
same,AC50,[2],"0.651 µM [falling, full curve, poor fit]"
O=C(CSc1nc2ccccc2o1)Nc1ccccc1N1CCOCC1,cell number change,,57.7%
same,AC50,[1],"0.366 µM [rising, full curve]"
same,AC50,[2],"0.146 µM [rising, full curve, poor fit]"
O=c1oc(-c2ccccc2NS(=O)(=O)c2ccc(Cl)cc2)nc2ccccc12,cell number change,,-0.397%
same,AC50,[1],"0.58 µM [falling, single point]"
same,AC50,[2],"0.517 µM [falling, single point]"
Cc1cc(N2CCOCC2)ccc1/C=C1\NC(=O)N(CC(=O)Nc2ccccc2C)C1=O,cell number change,,18.1%
CC(Oc1cccc(Cl)c1)C(=O)Nc1cc(=O)n(C)c(=O)n1C (centres undefined),AC50,[1],"0.092 µM [rising, full curve]"
same,AC50,[2],"0.092 µM [rising, full curve, poor fit]"
COc1ccccc1NC(=S)N/N=C/c1cccc(C)c1,cell number change,,14.8%
same,AC50,[2],"1.16 µM [rising, partial curve, poor fit]"
CCOc1ccccc1NC(=O)C(NC(=O)C1CCC(C)CC1)C(C)C (centres undefined),cell number change,,-2.18%
N#Cc1ccc(CSCC(=O)O)cc1,cell number change,,-1.23%
same,AC50,[2],"2.06 µM [falling, partial curve]"
Cc1ccc(S(=O)(=O)N2CCN(C(=O)CSc3nncs3)CC2)cc1,cell number change,,-13%
same,AC50,[2],"0.0517 µM [falling, full curve, poor fit]"
Cc1nn(C(=O)c2nn(C)cc2[N+](=O)[O-])c(C)c1Cl,cell number change,,-0.79%
same,AC50,[1],"0.291 µM [rising, partial curve, poor fit]"
COc1ccc(Cl)cc1NC(=O)CN(C)C(=O)Cn1c(=O)oc2ccccc21,cell number change,,-4.98%
same,AC50,[2],"0.326 µM [falling, full curve, poor fit]"
CN(C)c1ccc(NC(=O)CN2C3CCCC2CC(NC(=O)c2ccccc2)C3)cc1 (centres undefined),cell number change,,12.6%
same,AC50,[2],"0.116 µM [falling, partial curve, poor fit]"
Oc1ccc(C=Nc2ccccc2-c2nc3ccccc3[nH]2)c(O)c1,cell number change,,-6.25%
same,AC50,[2],"4.61 µM [rising, single point]"
O=C(CCS(=O)(=O)c1ccc(Cl)cc1)N1CCN(c2ccc(F)cc2)CC1,cell number change,,4.2%
same,AC50,[2],"25.9 µM [falling, single point]"
CCOC(=O)c1ccccc1NC(=S)N1CC(C)CC(C)C1 (centres undefined),cell number change,,14.2%
same,AC50,[2],"7.31 µM [rising, partial curve]"
Cc1coc(C)c1C(=O)Nc1ccc2ccccc2c1,cell number change,,-8.29%
Cc1ccc(S(=O)(=O)CCC(=O)OCC(=O)N2CC(=O)Nc3ccccc32)cc1,cell number change,,-13%
O=C(CN1C(=O)NC2(CCCC2)C1=O)N1CCN(c2cccc(C(F)(F)F)c2)CC1,cell number change,,-18.8%
CCOc1ccccc1NS(=O)(=O)c1ccc2c(c1)N(C)CCO2,AC50,[2],"18.4 µM [falling, single point]"

# 5 records drawn at random from those above, as already listed:
smiles,measurement,setting,value
Cc1sc(NC(=O)CN(C)C2CCCCC2)nc1-c1ccc2c(c1)CCN2S(=O)(=O)c1ccccc1,cell number change,,-2.1%
NCCCNC(=O)c1ccc(/C=N/O)nc1,AC50,[2],"0.651 µM [falling, full curve, poor fit]"
S=C1NC2(CCCC2)Nc2ccccc21,cell number change,,-23.9%
Cc1ccc(S(=O)(=O)N2CCN(C(=O)CSc3nncs3)CC2)cc1,AC50,[2],"0.0517 µM [falling, full curve, poor fit]"
CC1(C)CC(NC(=O)C2CCC(=O)N(Cc3ccccc3F)C2)CC(C)(C)C1 (centres undefined),cell number change,,-18.2%
